Values quoted from earlier work as cited in US20040192598A1, “Composition and method of alleviating adverse side effects and/or enhancing efficacy of agents that inhibit aromatase” (priority 2000, published 2004).
At least one structure is not confirmed: it was looked up by name or label, or the drawing left a doubt.

Tested on: aromatase
Conditions: estradiol administered to the aromatase inhibitor drug group, baboons

SMILES: C[C@]12CC[C@@H]3c4ccc(O)cc4CC[C@H]3[C@@H]1CC[C@@H]2O [estradiol]
- pregnancy losses: no pregnancy losses
